No constants are given. Whether binding was seen depends on the method and setting. In cells and extracts the contact can be indirect. A result given as binding can be weak or reduced; the word gives no strength.
Molecular target: EIN2 (endogenous, Arabidopsis seedlings) (Arabidopsis thaliana (endogenous in seedlings)) (UniProt Q9S814)
Assay: co-IP

Sequences of proteins named here, by UniProt entry; tags and fusion partners are left off. A change or cut given only in a name is not applied to a line headed by its entry.
UniProt Q9S814: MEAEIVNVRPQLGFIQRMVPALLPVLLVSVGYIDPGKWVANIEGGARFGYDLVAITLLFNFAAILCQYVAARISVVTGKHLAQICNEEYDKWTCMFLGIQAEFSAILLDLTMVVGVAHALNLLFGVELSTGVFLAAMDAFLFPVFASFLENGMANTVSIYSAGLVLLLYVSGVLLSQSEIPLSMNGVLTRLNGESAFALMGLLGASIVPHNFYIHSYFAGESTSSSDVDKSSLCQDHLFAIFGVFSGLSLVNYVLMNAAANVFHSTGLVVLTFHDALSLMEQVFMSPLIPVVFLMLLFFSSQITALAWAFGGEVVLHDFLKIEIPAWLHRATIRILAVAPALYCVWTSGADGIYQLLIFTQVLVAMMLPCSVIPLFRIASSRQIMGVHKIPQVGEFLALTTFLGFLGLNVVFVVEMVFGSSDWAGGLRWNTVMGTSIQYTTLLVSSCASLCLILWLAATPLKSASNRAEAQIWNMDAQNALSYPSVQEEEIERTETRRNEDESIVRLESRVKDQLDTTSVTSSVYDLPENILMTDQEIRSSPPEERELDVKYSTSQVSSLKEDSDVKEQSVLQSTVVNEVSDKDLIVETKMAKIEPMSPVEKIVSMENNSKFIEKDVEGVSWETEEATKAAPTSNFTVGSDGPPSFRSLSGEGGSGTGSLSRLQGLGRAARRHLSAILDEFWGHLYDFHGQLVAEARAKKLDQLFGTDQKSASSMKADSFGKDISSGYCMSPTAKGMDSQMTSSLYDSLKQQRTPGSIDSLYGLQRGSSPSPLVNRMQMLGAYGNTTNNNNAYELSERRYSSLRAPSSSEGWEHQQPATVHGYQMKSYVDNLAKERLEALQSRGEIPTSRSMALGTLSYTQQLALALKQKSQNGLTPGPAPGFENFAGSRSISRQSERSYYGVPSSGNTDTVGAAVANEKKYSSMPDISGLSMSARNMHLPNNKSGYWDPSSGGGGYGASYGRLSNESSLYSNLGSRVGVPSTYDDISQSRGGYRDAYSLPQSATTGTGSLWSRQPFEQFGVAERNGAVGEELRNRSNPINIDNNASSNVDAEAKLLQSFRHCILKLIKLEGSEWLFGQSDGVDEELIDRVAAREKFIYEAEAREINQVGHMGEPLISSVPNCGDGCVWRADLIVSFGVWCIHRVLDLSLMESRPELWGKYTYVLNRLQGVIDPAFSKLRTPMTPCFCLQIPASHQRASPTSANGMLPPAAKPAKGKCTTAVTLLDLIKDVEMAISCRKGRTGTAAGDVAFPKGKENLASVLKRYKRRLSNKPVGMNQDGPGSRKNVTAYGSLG
UniProt Q6PUA2: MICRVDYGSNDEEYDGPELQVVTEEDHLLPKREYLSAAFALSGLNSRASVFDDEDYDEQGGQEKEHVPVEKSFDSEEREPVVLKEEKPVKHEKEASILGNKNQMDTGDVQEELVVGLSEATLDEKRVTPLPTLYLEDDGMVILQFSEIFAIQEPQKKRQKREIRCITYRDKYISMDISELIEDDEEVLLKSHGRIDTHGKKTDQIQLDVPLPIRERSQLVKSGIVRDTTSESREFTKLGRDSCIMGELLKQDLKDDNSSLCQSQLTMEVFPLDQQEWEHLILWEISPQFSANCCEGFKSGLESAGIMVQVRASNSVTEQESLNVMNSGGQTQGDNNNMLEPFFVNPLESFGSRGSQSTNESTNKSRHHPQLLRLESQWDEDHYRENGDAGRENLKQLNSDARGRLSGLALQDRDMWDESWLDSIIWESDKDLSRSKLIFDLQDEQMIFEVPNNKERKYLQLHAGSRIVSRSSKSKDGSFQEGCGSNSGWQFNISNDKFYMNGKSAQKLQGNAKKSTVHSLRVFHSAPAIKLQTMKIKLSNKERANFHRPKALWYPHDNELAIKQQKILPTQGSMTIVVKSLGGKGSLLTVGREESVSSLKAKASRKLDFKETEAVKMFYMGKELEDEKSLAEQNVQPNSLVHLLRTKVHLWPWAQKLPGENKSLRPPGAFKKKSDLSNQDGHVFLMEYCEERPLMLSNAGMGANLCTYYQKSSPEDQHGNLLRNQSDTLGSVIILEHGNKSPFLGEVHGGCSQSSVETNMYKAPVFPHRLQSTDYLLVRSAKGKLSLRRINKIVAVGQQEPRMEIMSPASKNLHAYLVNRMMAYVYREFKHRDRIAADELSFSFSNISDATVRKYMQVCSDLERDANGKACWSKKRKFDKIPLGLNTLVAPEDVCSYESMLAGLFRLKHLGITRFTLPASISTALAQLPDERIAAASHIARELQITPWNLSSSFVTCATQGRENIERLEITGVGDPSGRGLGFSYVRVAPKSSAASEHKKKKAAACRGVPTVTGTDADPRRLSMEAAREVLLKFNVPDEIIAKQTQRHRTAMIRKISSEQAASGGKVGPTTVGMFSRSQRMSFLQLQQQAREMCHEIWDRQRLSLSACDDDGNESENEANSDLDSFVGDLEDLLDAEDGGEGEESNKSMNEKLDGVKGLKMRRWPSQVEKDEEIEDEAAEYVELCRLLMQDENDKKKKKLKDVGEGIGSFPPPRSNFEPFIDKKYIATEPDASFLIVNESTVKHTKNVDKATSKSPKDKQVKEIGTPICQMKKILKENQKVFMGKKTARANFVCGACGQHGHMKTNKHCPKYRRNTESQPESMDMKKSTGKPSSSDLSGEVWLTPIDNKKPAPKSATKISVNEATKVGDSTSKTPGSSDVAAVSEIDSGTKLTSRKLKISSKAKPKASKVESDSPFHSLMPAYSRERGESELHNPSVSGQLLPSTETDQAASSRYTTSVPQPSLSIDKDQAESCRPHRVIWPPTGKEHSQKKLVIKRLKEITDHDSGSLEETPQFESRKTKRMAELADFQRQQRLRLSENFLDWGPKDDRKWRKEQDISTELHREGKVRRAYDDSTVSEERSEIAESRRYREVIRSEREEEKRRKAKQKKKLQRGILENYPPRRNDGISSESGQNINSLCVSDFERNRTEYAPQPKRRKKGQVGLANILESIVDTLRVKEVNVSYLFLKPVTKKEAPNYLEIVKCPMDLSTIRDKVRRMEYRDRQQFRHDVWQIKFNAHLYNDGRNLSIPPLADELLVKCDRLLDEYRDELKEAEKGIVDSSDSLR

HAF2-GFP (full length HAF2 in transgenic Arabidopsis) (from UniProt Q6PUA2 1-1786)
binding: binds
